These are yes or no findings as the source states them, for the method shown. Some entries that bind do so weakly or less than the wild type.

The target in assay [1] is Cyno ST2-fc (cyno; human). Nature of the assay: ELISA, coated cyno ST2-fc.
Assay [2] concerns the target Cyno ST2-fc (cyno; human). The assay is described as follows: ELISA: cyno ST2-fc coated at 1 µg/mL, antibody titrated 3-fold from 1000 ng/mL, goat anti-mouse secondary antibody, OD450 [7-1].
Assay [3] concerns the target Cyno ST2-fc (cyno; human). Nature of the assay: ELISA: cyno ST2-fc coated at 1 µg/mL, antibody titrated 3-fold from 1000 ng/mL, goat anti-mouse secondary antibody, OD450 [7-2].

B1: 5887-537H3+L1 (antibody, V domains shown)
VH: QVTLKESGPGILQPSQTLSLTCSFSGFSLSTSGMGVGWIRQPSGKGLEWLAHIWWDDVKQYNPALKSRLTISKDTSSSQVFLKSASVDTADTATYYCARIGGDYDYFDFWGQGTTLTVSS
VL: DIVLTQSPASLAVSLGQRATISCRASESVEYSGTSLMQWYQQKPGQPPKLLIYVASNVESGVPARFSGSGSGTDFSLNIHPVEEDDIAMYFCQQSRKVPWTFGGGTKLEIK
notes: murine antibody; also called 5887-537H3H+L1
For B1, the binding entry in assay [1] and in assay [2] was “binds” in each case.

B2: 5886-156H+L (antibody, V domains shown)
VH: DVQLQQSGPGLVKPSQSLSLTCTVTGYSITSDYAWNWIRQFPGNKLEWMGYIDYSGSTTYNPSLKSRFSITRDTSKNQFFLQLNSVTTEDTATYYCASTVIDSMDYWGQGTSVTVSS
VL: DIVLTQSPASLAVSLGQRATISCRASKSVSTSGHSYMHWYQQKPGQPPKLLIYLASNLESGVPARFSGSGSGTDFTLNINPMEEEDAATYYCQHSREFPFTFGSGTKLEIK
notes: murine antibody
Consider B2, for which the binding result in assay [1] and in assay [2] was “binds” in each case.

B3: 5887-41H+L (antibody, V domains shown)
VH: DVQLQQSGPGLVKPSQSLSLTCTVTGYSITSDYAWDWIRQFPGNKLEWMGYIRYSGDTYYNPSLKSRISITRDTSKNQFFLQLNSVTTEDTATYYCATTMMDTMDYWGQGTSVTVSS
VL: DIVLTQSPASLTVSLGQRATISCRASKSVSTSGNSYMHWYQQKPGQPPKLLIYLASNLESGVPARFSGSGSGTDFTLNIHPVEEEDAATYYCQHSREFPLTFGAGTKLELK
notes: murine antibody
Regarding B3, the binding entry in assay [1] and in assay [2] was “binds” each time.

B4: Control antibody CNTO7160 (antibody, human IgG4 S228P, kappa, V domains shown)
VH: EVQLLESGGGLVQPGGSLRLSCAASGFTFSIYDMIWVRQAPGKGLEWVSSIRGEGGGTYYADSVKGRFTISRDNSKNTLYLQMNSLRAEDTAVYYCARDPWSTEGSFFVLDYWGQGTLVTVSS
VL: EIVLTQSPATLSLSPGERATLSCRASQSVDDDLAWYQQKPGQAPRLLIYDASNRATGIPARFSGSGSGTDFTLTISSLEPEDFAVYYCQQYITAPLTFGQGTKVEIKR
For the molecule B4, the binding entry in assay [3] and in assay [2] was “binds” each time.

B5: 5888-379H1+L2 (antibody, V domains shown)
VH: QIQLAQSGPELKKPGETVKISCKASGYTFINYGMNWVKQAPGKDLKWMGWINTYIGEPTYGDNFKGRFAFSLETSASTVYLQINNLKNEDTATYFCAREGDGFAYWGQGTLVTVSA
VL: DIVMTQSPPSLSVSVGEKVTMSCKSSQSLLYSGNQNNYLAWYQQKPGQPPKLLIYGASTRESGVPDRFTGSGSGTDFTLTISSVQAEDLAVYYCQNDHSYPYTFGGGTKLEIK
notes: murine antibody
As for B5, the binding result in assay [1] and in assay [3] was “binds” each time.

B6: 5888-116H1+L1 (antibody, V domains shown)
VH: QVQLQQSGAELVRPGASVTLSCKASGYTFTDSEMYWVRLTPVHGLEWIGAIDPETGDTAFNQKFKGKATLTADKSSSTAYMELRSLTSEDSVVYYCTRAFDNDNDDGFAYWGQGTLVTVSA
VL: QIVMTQSPAIMSASPGEKVTMTCSASSSVNYMHWYQQKSGTSPKRWIYDTSKLASGVPARFSGSGSGTSYSLTISSMEAEDAATYYCQQWSSNPLTFGAGTKLELK
notes: murine antibody
Take B6: the binding result in assay [1] and in assay [3] was “binds” in each case.

B7: 5888-153H1+L2 (antibody, V domains shown)
VH: QVQLQQSGAELVRPGASVTLSCKASGYTFTDYELHWVKQTPVHGLEWIGTIDPETGDTVYNQKFKAKAILTADKSSSTAYMEFRSLTSEDSAVCYCTRAFYNDYDDGFAYWGQGTLVTVSA
VL: QIVMTQTPAIMSASPGEKVTMTCSVSSSVSYMHWYQQKSGTSPKRWIYDTSKLASGVPARFSGSGSGTSYSLTINNMEAEDAATYYCQQWNSSPLTFGAGTKLELK
notes: murine antibody
B7: the binding result in assay [1] and in assay [3] was “binds” in each case.

B8: 5888-357H+L (antibody, V domains shown)
VH: QVQLQQSVTELVRPGASVTLSCKASGYRFTDSEMHWVKQTPVHGLEWIGTIDPETGGTVYNQKFKGKAKLTADRSSSTVSMELRSLTSEDSAVYYCTRAFYNDFDDGFAYWGQGTLVTVSA
VL: QIVMTQSPAIMSASPGEKVTLTCSASTSVSYMHWYQQKSGTSPKRWIYDTSKLASGVPARFSGSGSGTSYSLTISSMEAEDAATYYCQQWSSNPLTFGAGTKLELK
notes: murine antibody
On to B8, for which the binding result in assay [1] and in assay [3] was “binds” throughout.

These data come from US12624112 (MABWELL SHANGHAI BIOSCIENCE, dated 2026).
